# Source: PubChem BioAssay AID504793 (Drosophila RNAi Screening Center, 2011)
# Assay: 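Genes required for cells to halt at G2/M after double-strand DNA breaks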 (primary screen)
# Cell system: Drosophila S2R+ cells
# Knock-down reagent: long dsRNA against Drosophila genes, about 0.25 µg dsRNA per well
# Duration: 4 days of dsRNA, then 4 hours of drug before read-out
# Treatment: doxorubicin 0.5 µM for 4 hours to cause double-strand breaks, in cells also given a low, harmless dose of dsRNA against nbs to sensitise the assay
# Detection: 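Per-well count of mitotic cells stained for phospho-histone H3 after doxorubicin exposure, used as mitotic index; counts are raw and not normalised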
# Scale: mitotic cells: higher = more cells in mitosis, weaker G2 arrest
# Active means: 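a call needs confirmation in secondary tests, with other dsRNAs and a check of mitotic timing without damage, not just a high primary count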
# Calls: active = confirmed in follow-up tests; inactive = not confirmed
# In all, the deposit lists about 23,000 reagents; this is an unselected part of those that have a named target and a result. Over the whole deposit, 62 (0.27%) were called active. 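Calls come from follow-up tests whose scores are not deposited, so confirmed genes may have low counts here; counts are not normalised per plate.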 Raw values are not corrected between plates. Names joined by + are all predicted targets of the reagent. No sequences are given here.
target,amplicon,"mitotic cells, replicate 1","mitotic cells, replicate 2",call
CG30100 + CG42372,DRSC30025,9,,inactive
cuff,DRSC06315,3,,inactive
ATPsynGL,DRSC03027,6,,inactive
ATPsynGL,DRSC28550,5,,inactive
Acp1,DRSC01854,2,,inactive
Mapmodulin,DRSC06956,7,,inactive
Cyp4ac1,DRSC03302,6,,inactive
Pex2,DRSC10770,1,,inactive
wor,DRSC03637,5,,inactive
wor,DRSC25651,5,,inactive
CG31627,DRSC22143,9,,inactive
CCT3,DRSC16602,147,,inactive
Arglu1,DRSC02909,13,,inactive
Arglu1,DRSC28836,2,,inactive
Agps,DRSC05984,8,,inactive
Agps,DRSC26742,10,,inactive
CG13376,DRSC17901,12,,inactive
Mtr3,DRSC10953,15,,inactive
Mtr3,DRSC26956,9,,inactive
nebu,DRSC09807,2,,inactive
nebu,DRSC09808,5,,inactive
Klc,DRSC11203,3,,inactive
Klc,DRSC26363,6,,inactive
CG10053,DRSC12502,6,,inactive
CG10053,DRSC29993,6,,inactive
ND-B17.2,DRSC00577,7,,inactive
ND-B17.2,DRSC26940,3,,inactive
Cyp4ae1,DRSC18455,12,,inactive
Cyp4ae1,DRSC27698,8,,inactive
CG2685,DRSC18463,5,,inactive
CG2685,DRSC27295,2,,inactive
Obp56i,DRSC05812,9,,inactive
jigr1,DRSC15233,13,,inactive
jigr1,DRSC22617,11,,inactive
Gmer,DRSC04376,5,,inactive
Gmer,DRSC28925,12,,inactive
CG32815,DRSC18177,19,,inactive
CG32815,DRSC29799,5,,inactive
CG17658,DRSC04292,2,,inactive

Reformatted: entries from further up
target | amplicon | mitotic cells, replicate 1 | mitotic cells, replicate 2 | call
nebu | DRSC09808 | 5 | – | inactive
Klc | DRSC11203 | 3 | – | inactive
Klc | DRSC26363 | 6 | – | inactive
CG10053 | DRSC12502 | 6 | – | inactive
CG10053 | DRSC29993 | 6 | – | inactive
ND-B17.2 | DRSC00577 | 7 | – | inactive
ND-B17.2 | DRSC26940 | 3 | – | inactive
Cyp4ae1 | DRSC18455 | 12 | – | inactive
Cyp4ae1 | DRSC27698 | 8 | – | inactive

More reagents:
target,amplicon,"mitotic cells, replicate 1","mitotic cells, replicate 2",call
CG14907 + Mettl4,DRSC15026,4,,inactive
CG14907 + Mettl4,DRSC15027,9,,inactive
CG34426,DRSC09977,3,,inactive
cas,DRSC12373,1,,inactive
cas,DRSC24858,5,,inactive
Acp36DE,DRSC01860,4,,inactive
CG7889,DRSC20066,9,,inactive
CG7889,DRSC26654,11,,inactive
CG11634,DRSC03700,1,,inactive
Epg5,DRSC14778,5,,inactive
CG15530,DRSC15067,7,,inactive
CG15530,DRSC29873,7,,inactive
Or85d,DRSC16767,7,,inactive
Or85d,DRSC26656,7,,inactive
Gcn2,DRSC16678,7,,inactive
CG31999,DRSC17131,12,,inactive
CG31999,DRSC17133,17,,inactive
CG42518 + MED9,DRSC06917,7,,inactive
CG11454,DRSC00310,4,,inactive
CG11454,DRSC25138,2,,inactive
CG2224,DRSC15429,5,,inactive
CG2224,DRSC24269,5,,inactive
Mst85C,DRSC16746,7,,inactive
Mst85C,DRSC26445,6,,inactive
CG11191,DRSC23224,12,,inactive
CG11191,DRSC28710,3,,inactive
Cpr67Fa1 + Cpr67Fa2,DRSC28050,2,,inactive
CG8586,DRSC07218,7,,inactive
Atf-2,DRSC04130,4,,inactive
Atf-2,DRSC04413,5,,inactive
CG8840,DRSC00713,4,,inactive
CG13043,DRSC09924,3,,inactive
CG13043,DRSC25440,1,,inactive
CG10702,DRSC02097,4,,inactive
pncr003:2L (retired record),DRSC22149,11,11,inactive
pncr003:2L (retired record),DRSC29855,4,8,inactive
pncr003:2L (retired record),DRSC39126,8,,inactive
